Percent effect of library compounds

From ChEMBL document CHEMBL3988442, “University of Dundee, Small-Polar-MMV Screening Library” (2021).

Mtb glucose medium: 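Whole-cell growth test on Mycobacterium tuberculosis, read after 3 days in glucose-containing 7H9 medium; the read-out is not stated. Tested at 50 µM. Direction is inferred from retests: higher values go with more growth inhibition. Size under these conditions: about 69,000 compounds, about 760 of them at 50% or above in at least one test.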
Mtb cholesterol medium: 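Whole-cell growth test on Mycobacterium tuberculosis, read after 4 days in a medium based on cholesterol and the lipid DPPC; the read-out is not stated. Concentration: 50 µM. Higher reads as more growth inhibition (inferred: compounds with an IC50 in retests scored well above the rest). Of about 69,000 compounds tested this way, about 370 (0.54%) reached 50% or more in at least one test.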

Results are given as percent effect.
How 0% and 100% were set is not recorded. Most values in the screen are low, and negative values occur.
The compounds are a random part of those screened.
Two or more numbers in one place are separate tests of the same structure; such repeats can differ widely.

Result for O=C(c1ccc[nH]1)N1CCCn2c(CN3CCCCC3)nnc2C1 was Mtb glucose medium: -8.792%; Mtb cholesterol medium: 6.825%.
Result for COCC(C)N(C)C(=O)CCc1c(C)nc2c(C#N)cnn2c1C (stereo unspecified) was Mtb glucose medium: -25.67% and -3.772%; Mtb cholesterol medium: -13.72%.
Result for c1ccc2c(N3CCCCC3Cn3cccn3)ncnc2c1 (stereo unspecified) was Mtb glucose medium: 16.89%; Mtb cholesterol medium: 16.06%.
Result for CN1CCN(C2CCN(C(=O)CCC3CCCC3)CC2)CC1.O=C(O)C(=O)O was Mtb glucose medium: 0.8754% and -2.782%; Mtb cholesterol medium: 2.415%.
Result for N#Cc1cccc(C(=O)N2CCCC(O)(CO)CC2)c1 (stereo unspecified) was Mtb glucose medium: -29.76%; Mtb cholesterol medium: -10.51%.
Result for Cc1nn(C)c2cnn(Cc3ccc(C(=O)NC4CC4)o3)c12 was Mtb glucose medium: 13.9%; Mtb cholesterol medium: 7.881%.
Result for COc1ccc(OC)c(C(C(=O)O)N2CCSCC2)c1 (stereo unspecified) was Mtb glucose medium: -19.71%; Mtb cholesterol medium: -6.044%.
Result for Cc1ncsc1C(=O)Nc1ccccn1 was Mtb glucose medium: 7.379%; Mtb cholesterol medium: -13.41%.
Result for O=C(CN1CCCC1c1cccs1)N1CCc2sccc2C1 (stereo unspecified) was Mtb glucose medium: 22.26%; Mtb cholesterol medium: -1.277%.
Result for Cc1n[nH]c(C)c1-c1cc(-c2ccc[nH]2)nc(N)c1C#N was Mtb glucose medium: 35.46%; Mtb cholesterol medium: 7.649%.
Result for Cc1csc(C(=O)N2CCCC(c3[nH]ncc3S(C)(=O)=O)C2)c1 (stereo unspecified) was Mtb glucose medium: 37.82%; Mtb cholesterol medium: 3.975%.
Result for O=C(NC1CCCC1)C1CCN(c2cc(-n3ccnc3)ncn2)CC1 was Mtb glucose medium: -14.86% and -2.086%; Mtb cholesterol medium: -22.92%.
Result for Cc1ccccc1CS(=O)(=O)NCCCN1CCCC1 was Mtb glucose medium: 9.051%; Mtb cholesterol medium: 0.2465%.
Result for COCCN(Cc1cccc(O)c1)CC1CC1 was Mtb glucose medium: -10.83%; Mtb cholesterol medium: -3.53%.
Result for CCc1nccn1C1CCCN(C(=O)c2ccc(NC3CC3)nc2)C1 (stereo unspecified) was Mtb glucose medium: -20.27%; Mtb cholesterol medium: -2.872%.
Result for CCc1nc2c(N3CCCC(c4nccn4CCOC)C3)ncnc2o1 (stereo unspecified) was Mtb glucose medium: -12.74%; Mtb cholesterol medium: -15.47%.
Result for O=C(CNC1(c2ccc(Cl)cc2)CCOCC1)NC1CCCC1 was Mtb glucose medium: 15.89%; Mtb cholesterol medium: 4.022%.
Result for CC(NC(=O)NCC(C)(C)C(N)=O)c1nc(-c2ccccc2)cs1 (stereo unspecified) was Mtb glucose medium: 16.06%; Mtb cholesterol medium: 9.239%.
Result for CC(C)(C)c1nccc(N2CCCCC2CNS(C)(=O)=O)n1 (stereo unspecified) was Mtb glucose medium: -2.58%; Mtb cholesterol medium: 4.78%.
Result for COc1ccc(CNCCc2cc(F)cc3c2OCOC3)c(OC)c1 was Mtb glucose medium: 18.5%; Mtb cholesterol medium: -2.512%.
Result for COCCN1CCc2cc(C(=O)O)c(-c3ccoc3)nc2CC1.O=C(O)C(F)(F)F.O=C(O)C(F)(F)F was Mtb glucose medium: -0.07614%; Mtb cholesterol medium: -7.118%.
Result for c1ccc2oc(CCCN3CCOC(Cn4cccn4)C3)nc2c1 (stereo unspecified) was Mtb glucose medium: 1.63%; Mtb cholesterol medium: 6.084%.
Result for CN1CCCN(C(=O)c2cc(-c3cc[nH]n3)n3ccccc23)CC1.O=C(O)C(F)(F)F.O=C(O)C(F)(F)F was Mtb glucose medium: 14.4% and -0.8856%; Mtb cholesterol medium: -1.619%.
Result for CC(C)c1nn(C)c(N(C)C)c1CNC(C)c1ccc2c(c1)OCO2.Cl (stereo unspecified) was Mtb glucose medium: -25.46%; Mtb cholesterol medium: -4.303%.
Result for COc1c(C2CC(=O)Nc3[nH]ncc32)cc2c(c1OC)OCO2 (stereo unspecified) was Mtb glucose medium: 8.375% and 6.949%; Mtb cholesterol medium: -1.133%.
Result for CNC(=O)c1ccc(CNc2ccncc2Cl)cc1 was Mtb glucose medium: -18.66%; Mtb cholesterol medium: 6.217%.
Result for Cc1nc(C2CCCNC2)cc(N(C)CCc2ccccc2)n1 (stereo unspecified) was Mtb glucose medium: 2.814%; Mtb cholesterol medium: -14.07%.
Result for CN(C)C(CNC(=O)c1ccnc(-n2cncn2)c1)c1ccccc1 (stereo unspecified) was Mtb glucose medium: 18.02%; Mtb cholesterol medium: -7.873%.
Result for Cc1nc(N2CCOCC2)nc2c1CCN(C(=O)C1CCCCC1)CC2 was Mtb glucose medium: 15.98%; Mtb cholesterol medium: -28.35%.
Result for CNC(=O)CCc1cc(C)nc(C2CCN(C3CCCCC3)CC2)c1 was Mtb glucose medium: -10.49%; Mtb cholesterol medium: -3.634% and -11.28%.
Result for CS(=O)(=O)c1cccc(C(N)c2ccc(F)c(F)c2)c1.Cl (stereo unspecified) was Mtb glucose medium: -0.1473%; Mtb cholesterol medium: -0.6185%.
Result for COc1ccc(C(C(=O)O)N2CCC(O)(c3cccnc3)CC2)cc1Cl (stereo unspecified) was Mtb glucose medium: -13.23%; Mtb cholesterol medium: -9.771%.
Result for CN(CC1CCOC1)c1ccc(Br)cn1 (stereo unspecified) was Mtb glucose medium: -11.45%; Mtb cholesterol medium: -7.002% and -18.38%.
Result for CCCN1CCN(Cc2cc3cc(OCC)ccc3[nH]c2=O)CC1 was Mtb glucose medium: -7.281%; Mtb cholesterol medium: -7.677%.
Result for COc1ccc(CNC[C@@]2(COc3cccnc3)C[C@@H](O)[C@@H](O)C2)cc1.Cl was Mtb glucose medium: -11.89% and 2.703%; Mtb cholesterol medium: -22.83%.
Result for CC(C)c1cc(N2CCSCC2)n2nccc2n1 was Mtb glucose medium: -7.02%; Mtb cholesterol medium: -25.27%.
Result for O=C1CC(c2cccs2)Cc2nc(O)c(C(=O)N3CCCC3)cc21 (stereo unspecified) was Mtb glucose medium: -9.099%; Mtb cholesterol medium: 1.88% and 5.29%.